At least one compound was matched to its structure with a doubt left.
Tested on: Sprague-Dawley rats
Test: Total tibial length by X-ray radiography
Type: in vivo, rat
Conditions: after 10-day administration, coumaric acid 100 mg/kg oral, growth hormone 20 μg/kg s.c.
Description: In a control group, saline was injected. […] The drug administered to each group is as follows:
To assess the effect of coumaric acid on growth promotion, total tibial length of rats were measured. In Experimental Example <1-1>, after the 10-day administration was completed, right and left tibias (shinbones) were extracted from the control groups and the coumaric acid-fed experimental group according to this invention, all the muscles, fat and ligaments attached to bone tissue were removed, and then the resulting specimen was stored in 70% alcohol, followed by radiographic analysis using an X-ray imaging instrument (OM-FORTE-10121, DK Medical Systems). For the analysis, 55 kV, […] X-ray sources were used. The total tibial length was measured by X-ray radiography.

O=C(O)/C=C/c1ccc(O)cc1 [coumaric acid]
total tibial length vs control group: greater than the control group
